Results deposited as PubChem BioAssay AID1224828 (NIAID, 2016)
Purpose: 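Knock-downs that increase or decrease LPS-induced p65 nuclear translocation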 (primary screen). Cell system: mouse RAW264.7 G9 macrophage reporter cells (GFP-p65, Tnf promoter-mCherry). Reagent: siRNA pool against mouse genes, 100 nM. Duration: 2 days siRNA transfection, then 40 min LPS before fixation. Challenge: LPS (Salmonella minnesota R595) at 10 ng/ml. Detection: 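Microscopy ratio of nuclear to perinuclear-ring GFP-p65 signal, scaled to the plate median; gene score is the average of two replicate robust z-scores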. Scale: p65 translocation robust z-score: higher = more nuclear NF-kappaB p65 after LPS than the plate median; nuclear/cytoplasmic p65 ratio: higher = more nuclear NF-kappaB p65. Hit rule: 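Active if robust z is above 3.3 (negative regulators) or below -1.56, the Tlr4 control median (positive regulators); activity score 50 or more; control wells not called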. Calls: active = hit (p65 shift raised or lowered); inactive = no clear change.
Here is an unselected part of about 17,000 deposited reagents. Over the whole deposit, 762 (4.5%) were called active. 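Active calls include both raised and lowered p65 entry, mostly lowered; wells with fewer than 50 cells lack a z-score.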 Raw values vary from plate to plate and are shown uncorrected. Entries without a mark were called inactive.

gene	PubChem SID	p65 translocation robust z-score	nuclear/cytoplasmic p65 ratio, rep 1	nuclear/cytoplasmic p65 ratio, rep 2	low cell count flag
Psmd9	SID315472870		1.3	1.16	fewer than 50 cells per well; well left out of scoring
Epb41l4a	SID315466515	-0.56	1.54	1.36	enough cells to score
Kcnab3	SID315467567	-0.1	1.48	1.35	enough cells to score
Rflna	SID315474675	0.51	1.31	1.35	enough cells to score
Snx12	SID315471330		1.15	1.16	fewer than 50 cells per well; well left out of scoring
Fuca2	SID315472671	0.19	1.55	1.73	enough cells to score
Cbx1	SID315465802	1.21	1.64	1.53	enough cells to score
Gtsf1l	SID315473468	-0.27	1.27	1.52	enough cells to score
Kcnh7	SID315477210	0.55	1.55	1.45	enough cells to score
Spats1	SID315474175	0.02	1.45	1.21	enough cells to score
Or8a1	SID315481961	-0.14	1.68	1.32	enough cells to score
Cst3	SID315466180	-0.69	1.36	1.31	enough cells to score
Anxa8	SID315465426	-0.78	1.53	1.48	enough cells to score
Fam219b	SID315475565	1.33	1.53	1.56	enough cells to score
Gja10	SID315466904	-0.69	1.2	1.39	enough cells to score

Just “nuclear/cytoplasmic p65 ratio, rep 2”, for 3 of the entries above:
Kcnab3 [SID315467567]: 1.35
Rflna [SID315474675]: 1.35
Snx12 [SID315471330]: 1.16

The list goes on.
gene	PubChem SID	p65 translocation robust z-score	nuclear/cytoplasmic p65 ratio, rep 1	nuclear/cytoplasmic p65 ratio, rep 2	low cell count flag
Epor	SID315466539	-0.22	1.47	1.33	enough cells to score
Zfpm1	SID315470141	-0.94	1.29	1.14	enough cells to score
Vps9d1	SID315474522	-0.73	1.57	1.44	enough cells to score
Nabp2	SID315473934	-0.02	1.41	1.45	enough cells to score
Slc6a3	SID315466265	-0.3	1.43	1.52	enough cells to score
Pick1	SID315468504		1.63	1.33	fewer than 50 cells per well; well left out of scoring
Macroh2a1	SID315470479	0.99	1.58	1.48	enough cells to score
Hnrnpc	SID315467242	0.66	1.75	1.63	enough cells to score
Ncf2	SID315468109	0.5	1.45	1.46	enough cells to score
